According to article PMC12040169 (PLOS Biology, 2025):
Some of the results follow.

system: T1, CTL2-GFP (C. trachomatis L2/434/Bu, GFP-expressing); parameters: species or system HeLa; Intracellular C. trachomatis growth in HeLa cells, bulk GFP fluorescence relative to DMSO; conditions: bulk GFP, single well; 28.5 h, 10 µM; inhibitor
T1 construct: L2/434/Bu, GFP-expressing

In order of falling “% of control remaining” value:
1. O=C(NC(CN1CCOCC1)c1ccccc1)c1cnc(-c2ccc(Cl)cc2)c(-c2ccncc2)c1 (stereo not drawn) [CBK037604]  189.951%
2. COCCN1C(=O)C2(CC(=O)N(C)C2=O)c2ccccc21 (stereo not drawn) [CBK075387]  182.921%
3. CC(=O)Nc1cccc(-c2nccnc2NCC2CC2)c1 [CBK037962]  159.405%
4. c1csc(-c2cn3ccnc3c(NC3CC3)n2)c1 [CBK066712]  157.136%
5. CC(=O)N1CCc2cc(C(=O)N[C@@H](Cc3ccccc3)C(=O)O)ccc21 [CBK298303]  154.002%
6. O=c1nc(O)c(I)cn1C1OC(CO)C(O)C1O (stereo not drawn) [CBK015625]  152.795%
7. O=C1NC/C=C/CC2(CCN(Cc3ccccc3)CC2)C(=O)NCCOc2ccccc21 [CBK292097]  144.664%
8. Cc1[nH]c(=O)[nH]c(=O)c1CCC(=O)OCc1nccn1Cc1ccccc1 [CBK297939]  142.677%
9. Cn1nnnc1SCCNC(=O)Nc1cccc(N2CCOC2=O)c1 [CBK306593]  141.932%
10. O=C(Cc1ccc(Cl)cc1)NC(=S)Nc1ccccc1O [CBK263905]  137.842%
11. Cc1ccc(C)c(S(=O)(=O)Nc2ccc(O)c(Sc3nc[nH]n3)c2)c1 [CBK266894]  137.254%
12. O=C(Nc1nnc(COc2ccccc2)s1)c1cccc2ccccc12 [CBK300487]  137.159%
13. CC(C)NS(=O)(=O)c1ccc(NC(=O)Cc2cccc3ccccc23)cc1 [CBK268102]  136.078%
14. COc1ccc(CCN[C@H]2CCC[C@@H]2O)cc1OC [CBK005354G]  134.619%
15. Cc1ccc2nsnc2c1NC(=O)CN1CCCCC1 [CBK269330]  133.192%
16. Cc1cc(NC(=O)C2CCCCC2)nc2c1c(=O)oc1ccccc12 [CBK291247]  132.381%
17. CN(C)Cc1cn([C@H]2CO[C@H]3[C@@H]2OC[C@@H]3NC(=O)NC2CCCCC2)nn1 [CBK289493]  132.356%
18. Cc1nc2ccc(C(=O)N3CCC(O)(c4ccccc4C)CC3)cc2[nH]1 [CBK283300]  132.242%
19. CC(C)(C)SCCOC(=O)C1CC(=O)N(Cc2ccccn2)C1 (stereo not drawn) [CBK303991]  132.163%
20. CC(C)CCNCc1ccc(-c2cn(CC(=O)NCCc3ccccc3)nn2)cc1 [CBK164740]  132.09%
21. Cc1ccc(S(=O)(=O)N(CC(=O)O)c2ccc(C)c(C)c2)cc1 [CBK263778]  130.356%
22. C=Cn1ncc(CN(Cc2ccc(C)o2)CC2CCCO2)c1C (stereo not drawn) [CBK283292]  130.01%
23. CN(C(=O)C1CCC1)c1nc2c(s1)CCc1c-2cnn1C [CBK281931]  129.147%
24. CC1CCN(CCN2CCn3c2nc2ccccc23)CC1 [CBK265467B]  128.019%
25. COc1ccc([C@@H]2CCN(C(=O)Cc3ccccc3F)C[C@H]2O)cc1 [CBK283756]  126.979%
26. Cc1ccc(-c2noc(-c3cccnc3N3CCC(C(=O)O)CC3)n2)cc1 [CBK287260]  126.585%
27. c1ccc(CN2CCN(Cc3ccccc3)C2c2cccnc2)cc1 [CBK260885]  126.52%
28. CN(C)C(=O)[C@H]1CN2CCC1C[C@@H]2Cn1cc(CCO)nn1 (stereo partly drawn) [CBK289089]  124.506%
29. CC1(C)Cc2c(sc(NC(=O)Cc3ccccc3)c2C(=O)O)CO1 [CBK264354]  124.106%
30. CCOC(=O)N1CCN(C(C(=O)O)c2c[nH]c3cc(OCc4ccccc4)ccc23)CC1 (stereo not drawn) [CBK286689]  123.998%
31. CC(C)[C@H](CO)Nc1cncc(-c2cccc3ccccc23)n1 [CBK065501]  123.969%
32. O=C(Cn1c(=O)n(Cc2cccnc2)c(=O)c2ncccc21)NC1CCCC1 [CBK287666]  123.661%
33. CCc1nnc(SCC(=O)N2c3ccccc3Sc3ccccc32)[nH]1 [CBK268687]  122.908%
34. c1ccc(-c2nc(C3CCCC3)n3ccccc23)cc1 [CBK149260]  122.677%
35. CCCC/C=C/c1cnc(N)c(N[C@@H](C)c2ccccc2)n1 [CBK063722]  121.036%
36. Cc1cnn(C2CCCN(C(=O)CC3OCCc4sccc43)C2)c1 (stereo not drawn) [CBK305329]  120.035%
37. Cn1cnc(S(=O)(=O)N(c2ccc(C(C)(C)C)cc2)C2CCNCC2)c1 [CBK165046T]  119.194%
38. O=C(OCC=C=CSc1ccc([N+](=O)[O-])cc1)c1ccc(F)cc1 [CBK265650]  118.155%
39. COc1cccc2cc(C(=O)Nc3ccc4[nH]ccc4c3)oc12 [CBK149819]  115.329%
40. COc1ccc(CN(C)c2c(C)nc3c(OCCCN(C)S(C)(=O)=O)cccn23)cc1 [CBK147468]  114.898%
41. CN(Cc1cccc(Oc2ccccc2)c1)Cc1cccc2ccccc12 [CBK261857]  112.846%
42. O=C(N/N=C/c1ccc(O)cc1)c1cc[n+](Cc2ccccc2)cc1 [CBK262047C]  112.796%
43. Cc1csc(Sc2nccnc2N2CCCC2)n1 [CBK093735]  112.608%
44. CN1CCN(c2ccc(NS(=O)(=O)c3ccc(Cl)cc3)cc2)CC1 [CBK076932]  111.904%
45. Cc1nc(N2CCOCC2)nc(Nc2ccc(Cl)cc2)c1[N+](=O)[O-] [CBK264685]  111.792%
46. CNC(=O)CN(CCO)Cc1cc(Br)ccc1F [CBK304941]  110.868%
47. O=C(NC(c1ccccc1)c1ccsc1)C1CCN(C/C=C/c2ccccc2)CC1 (stereo not drawn) [CBK148449]  110.536%
48. Cn1c(=O)c2cnc(-c3ccccc3Cl)nc2n(C)c1=O [CBK291219]  108.939%
49. NCc1ccc(CN(Cc2ccc(-c3ccccc3)cc2)C(=O)Nc2ccccc2C(F)(F)F)cc1 [CBK046116C]  108.093%
50. COC(=O)CNC(c1ccccc1)c1cc(Br)ccc1N (stereo not drawn) [CBK019222]  107.891%
51. c1ccc(CCN2CCC(Oc3nccnc3OCc3cccnc3)CC2)nc1 [CBK083180]  107.689%
52. COC(=O)N1CCN(C(=O)c2cc(C(C)C)n3ncnc3n2)CC1 [CBK306509]  106.592%
53. O=C(O)c1ccc(NC(=O)C2CCN(S(=O)(=O)c3ccccc3)CC2)cc1 [CBK265181]  106.284%
54. O=S(=O)(Nc1cc(C(F)(F)F)ccc1N1CCOCC1)c1ccc(-c2ccccn2)s1 [CBK062557]  105.171%
55. Cn1cccc1C(=O)NCc1ccc(OC2CCNCC2)cc1 [CBK036360T]  104.581%
56. c1ccc2[nH]c(SCCCCCSc3nc4ccccc4[nH]3)nc2c1 [CBK025418]  103.118%
57. CC(C)(CO)CNc1cncc(-c2cccs2)n1 [CBK065599]  101.458%
58. Cc1cc(C(=O)Nc2cc(F)c(N3CCCC3)c(F)c2)c(C)n1C1CC1 [CBK306226]  101.207%
59. CN(C)C(=O)CN1CCCC2(CCN(C(=O)c3cc(F)c(F)cc3F)C2)C1 (stereo not drawn) [CBK132024]  100%
60. O=C(CCCN1CCN(CCCC(=O)c2ccc(F)cc2)CC1)c1ccc(F)cc1 [CBK025317C]  100%
61. COc1ccccc1N1CCN(CC(O)COCc2ccc3c(c2)OCO3)CC1 (stereo not drawn) [CBK278323C]  100%
62. Cc1ccc(CN(CCCn2ccnc2)Cc2ccccc2O)s1 [CBK283135]  98.648%
63. CCCN1CCN(c2ncnc3sc(C4COc5ccccc5O4)cc23)CC1 (stereo not drawn) [CBK269396]  98.6124%
64. CSCCN1CCC(Oc2nccnc2OCCN2C(=O)CCC2=O)CC1 [CBK084351]  98.4442%
65. COC(=O)c1ccccc1NC(=O)CN(c1cccc(Cl)c1Cl)S(C)(=O)=O [CBK264612]  98.3225%
66. C/C(CCc1ccccc1)=N\NC(=O)c1ccc(CN2CCOCC2)cc1 [CBK262752]  97.953%
67. N#C/C(=C\c1cn(-c2ccccc2)nc1-c1cccc(S(=O)(=O)N2CCCCCC2)c1)c1nc2ccccc2c(=O)[nH]1 [CBK266347]  92.7521%
68. COc1ccc(C)cc1S(=O)(=O)N(CCO)c1cc(N2CCNCC2)c2occc2c1 [CBK067894C]  91.7205%
69. Cc1ncc([N+](=O)[O-])n1CCOC(=O)NC(N1CCOCC1)C(Cl)(Cl)Cl (stereo not drawn) [CBK261299]  88.7275%
70. CC(C)(C)OC(=O)NCc1ccc(CNCc2ccc(-c3ccccc3)cc2)cc1 [CBK056706]  86.5533%
71. O=C(O)c1ccccc1Nc1c2ccccc2nc2ccccc12 [CBK263921]  85.6663%
72. Cn1ccc(N2CCCC(NC(=O)c3scnc3C(C)(C)C)C2=O)n1 (stereo not drawn) [CBK305453]  85.0327%
73. Cn1ccc2cc(NS(=O)(=O)c3ccc4[nH]c(=O)[nH]c(=O)c4c3)ccc21 [CBK286364]  83.09%
74. CC(C)(CO)CCCn1cncc1-c1cnn(-c2ccc(F)cc2)c1 [CBK281466]  80.7398%
75. O=C(c1cc(C(F)(F)F)cc(C(F)(F)F)c1)N1CCN(Cc2ccc3c(c2)OCO3)CC1 [CBK074756]  80.2783%
76. Cc1ccc(/C=N/NC(=O)C(C)Oc2ccccc2Br)o1 (stereo not drawn) [CBK262226]  80.1244%
77. CN1C(=O)C(CC(=O)Nc2ccc(F)cc2)N(CCc2ccccc2)C1=S (stereo not drawn) [CBK263861]  74.3712%
78. O=C1c2ccccc2CN1c1ccccc1 [CBK113189]  69.3499%
